Test results taken from article PMC10333294.

Amino acid sequences for entries named in this document (tags omitted). A change or cut given only in a name is not applied to a line headed by its entry.
UniProt Q9Y4X5: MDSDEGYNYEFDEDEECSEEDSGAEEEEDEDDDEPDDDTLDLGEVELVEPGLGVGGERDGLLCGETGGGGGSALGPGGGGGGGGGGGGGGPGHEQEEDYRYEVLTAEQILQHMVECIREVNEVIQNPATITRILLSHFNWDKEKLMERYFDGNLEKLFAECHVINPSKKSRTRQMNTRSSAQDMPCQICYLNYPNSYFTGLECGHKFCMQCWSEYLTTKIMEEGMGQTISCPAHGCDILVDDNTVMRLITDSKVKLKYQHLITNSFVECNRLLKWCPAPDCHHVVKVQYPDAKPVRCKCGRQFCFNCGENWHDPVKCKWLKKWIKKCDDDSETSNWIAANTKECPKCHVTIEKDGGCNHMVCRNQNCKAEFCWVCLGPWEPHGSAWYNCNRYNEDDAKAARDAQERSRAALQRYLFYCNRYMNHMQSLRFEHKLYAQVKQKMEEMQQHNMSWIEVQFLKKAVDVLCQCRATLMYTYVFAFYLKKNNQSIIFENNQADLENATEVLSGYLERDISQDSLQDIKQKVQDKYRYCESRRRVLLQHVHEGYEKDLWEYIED
UniProt P78527: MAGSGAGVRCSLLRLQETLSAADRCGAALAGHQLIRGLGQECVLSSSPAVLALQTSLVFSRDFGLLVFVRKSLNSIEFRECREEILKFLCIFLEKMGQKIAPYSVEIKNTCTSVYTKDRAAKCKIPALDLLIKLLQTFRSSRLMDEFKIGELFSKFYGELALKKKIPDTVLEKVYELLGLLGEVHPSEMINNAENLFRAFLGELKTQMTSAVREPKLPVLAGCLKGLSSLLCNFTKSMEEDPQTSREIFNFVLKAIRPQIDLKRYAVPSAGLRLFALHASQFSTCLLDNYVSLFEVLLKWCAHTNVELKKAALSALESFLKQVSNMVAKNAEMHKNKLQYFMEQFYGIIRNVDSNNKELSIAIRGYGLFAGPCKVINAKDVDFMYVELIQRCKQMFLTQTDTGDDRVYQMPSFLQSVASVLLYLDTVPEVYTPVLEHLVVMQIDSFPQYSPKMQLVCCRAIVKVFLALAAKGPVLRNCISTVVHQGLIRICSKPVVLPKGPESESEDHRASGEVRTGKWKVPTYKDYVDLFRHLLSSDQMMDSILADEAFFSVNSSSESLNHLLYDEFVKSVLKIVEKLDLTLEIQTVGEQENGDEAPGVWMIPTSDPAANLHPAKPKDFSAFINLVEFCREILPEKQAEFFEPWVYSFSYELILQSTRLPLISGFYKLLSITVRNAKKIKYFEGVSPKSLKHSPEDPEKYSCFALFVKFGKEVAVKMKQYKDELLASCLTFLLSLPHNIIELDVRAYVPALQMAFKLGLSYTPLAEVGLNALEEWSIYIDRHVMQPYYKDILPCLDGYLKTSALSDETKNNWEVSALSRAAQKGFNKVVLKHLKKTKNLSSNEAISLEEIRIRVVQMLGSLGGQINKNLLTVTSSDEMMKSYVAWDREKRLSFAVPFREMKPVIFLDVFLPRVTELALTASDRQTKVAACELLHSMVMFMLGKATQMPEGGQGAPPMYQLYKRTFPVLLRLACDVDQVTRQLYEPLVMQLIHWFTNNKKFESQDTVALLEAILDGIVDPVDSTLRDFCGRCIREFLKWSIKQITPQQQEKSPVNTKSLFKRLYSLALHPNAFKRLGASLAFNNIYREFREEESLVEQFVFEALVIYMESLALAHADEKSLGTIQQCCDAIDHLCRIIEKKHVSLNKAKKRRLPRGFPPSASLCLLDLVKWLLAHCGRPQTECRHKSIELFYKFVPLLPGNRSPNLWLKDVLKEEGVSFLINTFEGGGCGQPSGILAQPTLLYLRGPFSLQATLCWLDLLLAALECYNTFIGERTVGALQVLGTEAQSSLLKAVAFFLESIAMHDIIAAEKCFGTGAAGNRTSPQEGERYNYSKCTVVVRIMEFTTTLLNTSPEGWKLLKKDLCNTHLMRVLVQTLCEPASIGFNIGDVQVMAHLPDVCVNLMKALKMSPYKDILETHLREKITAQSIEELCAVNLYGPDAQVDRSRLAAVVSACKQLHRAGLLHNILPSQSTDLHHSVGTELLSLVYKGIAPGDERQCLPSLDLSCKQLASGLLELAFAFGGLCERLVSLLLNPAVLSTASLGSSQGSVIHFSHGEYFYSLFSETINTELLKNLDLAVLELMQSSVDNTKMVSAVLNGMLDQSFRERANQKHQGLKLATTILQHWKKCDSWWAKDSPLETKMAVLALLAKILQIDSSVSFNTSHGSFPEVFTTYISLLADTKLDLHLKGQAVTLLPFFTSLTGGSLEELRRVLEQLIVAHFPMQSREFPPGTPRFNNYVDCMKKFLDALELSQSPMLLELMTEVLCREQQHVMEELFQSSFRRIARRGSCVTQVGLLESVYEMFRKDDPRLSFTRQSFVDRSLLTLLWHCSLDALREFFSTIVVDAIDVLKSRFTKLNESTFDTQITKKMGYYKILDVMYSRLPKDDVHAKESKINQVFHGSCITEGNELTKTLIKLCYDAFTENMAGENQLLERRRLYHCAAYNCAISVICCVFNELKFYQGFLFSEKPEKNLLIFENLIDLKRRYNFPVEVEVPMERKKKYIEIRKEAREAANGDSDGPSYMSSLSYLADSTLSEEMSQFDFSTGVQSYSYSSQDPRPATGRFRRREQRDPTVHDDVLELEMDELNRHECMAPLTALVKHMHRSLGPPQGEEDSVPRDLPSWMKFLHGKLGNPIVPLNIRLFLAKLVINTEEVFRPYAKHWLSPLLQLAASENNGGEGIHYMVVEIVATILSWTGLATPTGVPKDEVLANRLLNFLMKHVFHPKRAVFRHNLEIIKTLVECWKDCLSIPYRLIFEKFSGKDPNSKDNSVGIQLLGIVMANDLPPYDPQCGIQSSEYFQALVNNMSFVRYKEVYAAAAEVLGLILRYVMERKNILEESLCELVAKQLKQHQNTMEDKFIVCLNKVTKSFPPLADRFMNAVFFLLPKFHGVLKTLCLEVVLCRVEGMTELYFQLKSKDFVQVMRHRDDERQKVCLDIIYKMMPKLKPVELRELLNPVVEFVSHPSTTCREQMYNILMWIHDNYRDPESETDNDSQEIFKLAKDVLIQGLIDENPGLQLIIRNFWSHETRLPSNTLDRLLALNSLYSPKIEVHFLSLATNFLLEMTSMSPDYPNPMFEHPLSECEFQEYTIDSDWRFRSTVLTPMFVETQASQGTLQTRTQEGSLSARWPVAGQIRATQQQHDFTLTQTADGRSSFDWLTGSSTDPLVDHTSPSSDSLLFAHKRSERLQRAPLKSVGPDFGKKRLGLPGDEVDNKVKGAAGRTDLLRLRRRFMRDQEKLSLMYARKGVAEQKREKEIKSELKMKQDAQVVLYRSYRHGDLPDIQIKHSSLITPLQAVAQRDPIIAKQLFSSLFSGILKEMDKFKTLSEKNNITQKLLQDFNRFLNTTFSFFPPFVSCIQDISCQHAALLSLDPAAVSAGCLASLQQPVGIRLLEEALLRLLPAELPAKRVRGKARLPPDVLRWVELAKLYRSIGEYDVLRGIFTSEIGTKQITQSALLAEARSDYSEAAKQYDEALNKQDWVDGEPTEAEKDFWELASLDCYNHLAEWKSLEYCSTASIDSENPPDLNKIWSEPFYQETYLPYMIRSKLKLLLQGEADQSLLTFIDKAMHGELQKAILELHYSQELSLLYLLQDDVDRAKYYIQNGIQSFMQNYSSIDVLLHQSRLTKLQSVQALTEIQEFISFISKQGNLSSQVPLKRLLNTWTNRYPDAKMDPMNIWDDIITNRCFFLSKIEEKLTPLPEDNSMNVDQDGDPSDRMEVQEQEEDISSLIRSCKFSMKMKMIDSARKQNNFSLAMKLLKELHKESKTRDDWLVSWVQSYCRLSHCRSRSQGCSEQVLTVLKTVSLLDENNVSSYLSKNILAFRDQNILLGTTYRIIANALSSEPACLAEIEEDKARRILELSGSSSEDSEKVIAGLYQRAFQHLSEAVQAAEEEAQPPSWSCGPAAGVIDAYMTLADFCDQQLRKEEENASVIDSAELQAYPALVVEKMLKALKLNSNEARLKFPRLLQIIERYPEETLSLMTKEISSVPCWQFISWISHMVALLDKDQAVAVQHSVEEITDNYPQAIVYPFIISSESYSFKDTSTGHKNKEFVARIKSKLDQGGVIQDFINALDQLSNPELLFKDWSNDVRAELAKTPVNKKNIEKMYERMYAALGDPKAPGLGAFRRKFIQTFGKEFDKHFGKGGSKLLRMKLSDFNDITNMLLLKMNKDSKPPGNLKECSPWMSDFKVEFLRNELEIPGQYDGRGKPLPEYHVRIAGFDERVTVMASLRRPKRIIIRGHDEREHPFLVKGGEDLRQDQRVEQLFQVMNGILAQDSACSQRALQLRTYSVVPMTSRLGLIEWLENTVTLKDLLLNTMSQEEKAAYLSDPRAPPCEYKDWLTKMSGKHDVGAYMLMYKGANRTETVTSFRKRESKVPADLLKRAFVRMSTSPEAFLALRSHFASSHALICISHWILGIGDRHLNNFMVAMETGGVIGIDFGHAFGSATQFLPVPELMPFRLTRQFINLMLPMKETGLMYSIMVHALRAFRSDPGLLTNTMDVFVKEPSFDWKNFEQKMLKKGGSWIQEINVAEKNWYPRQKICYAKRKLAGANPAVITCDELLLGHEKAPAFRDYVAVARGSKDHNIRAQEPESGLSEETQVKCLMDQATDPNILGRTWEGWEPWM

Tests used:
[1] = target: ARIH1^-WT-HA (Ariadne RBR E3 ubiquitin-protein ligase 1, HA-tagged) (human) (UniProt Q9Y4X5); experiment: affinity purification with mass spectrometry; ARIH1^-WT-HA or ARIH1^-C357S-HA transfected into HEK293T for 36 h, immunoprecipitated, trypsin digested on beads, Q Exactive HF-X
[2] = target: ARIH1^-C357S-HA (ligase-dead ARIH1, HA-tagged) (human) (UniProt Q9Y4X5); experiment: as above

binding [1]: binds
binding [2]: binds
Substance: DNA-PKcs (DNA-dependent protein kinase catalytic subunit), endogenous (from UniProt P78527 1-4128)

These are yes or no findings as the source states them, for the method shown. In cells and extracts the contact can be indirect. These calls come from enrichment with a bait or labelling near it, and not all partners need be listed.
